# From the supplement of paper PMC4604168 (melanoma cell lines)
# This is one part of the list. Single values are uncertain, as repeats are few or missing.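 Imaging used 1,536-well plates; nuclei positive for cleaved PARP by antibody were divided by total DNA-stained nuclei to yield the apoptosis fraction. Doses for screening kept most cells viable, and cell lines differ markedly in resting and induced cleaved-PARP levels.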
# System: CBRC008 (line from a melanoma biopsy)
# Assay: cleaved PARP positive nuclei fraction relative to DMSO control; melanoma cells; higher = more apoptosis
# Settings: library dose: low library concentration; 72 h
row,Structure (SMILES),cleaved PARP positive nuclei fraction [%]
1,"O=c1[nH]nc(Sc2ncc([N+](=O)[O-])s2)n1-c1ccc2c(c1)OCCO2 + COc1cc2c(Oc3ccc4[nH]c(C)cc4c3F)ncnc2cc1OCCCN1CCCC1 [cediranib] (first compound 0.2 µM, partner dose 0.4 µM)",198
2,"Cc1cc(Nc2cc(N3CCN(C)CC3)nc(Sc3ccc(NC(=O)C4CC4)cc3)n2)n[nH]1 [Tozasertib] + NC(=O)Nc1cc(-c2cccc(F)c2)sc1C(=O)N[C@H]1CCCNC1 [AZD7762] (first compound 0.006 µM, partner dose 0.02 µM)",107
3,"Cc1cn(-c2cc(NC(=O)c3ccc(C)c(Nc4nccc(-c5cccnc5)n4)c3)cc(C(F)(F)F)c2)cn1 [nilotinib] + O=C(Nc1cccc(Cl)c1)Nc1ncc(CCNc2ncnc3ccsc23)s1 [SNS314] (first compound 0.2 µM, partner dose 0.0008 µM)",232
4,"CCCCCCCCCCCCCCCCCCOP(=O)([O-])OC1CC[N+](C)(C)CC1 [Perifosine] + CC(C)(C)c1cnc(CSc2cnc(NC(=O)C3CCNCC3)s2)o1 [SNS-032] (first compound 0.4 µM, partner dose 0.01 µM)",241
5,"O=C(Nc1cc(C(F)(F)F)cc(C(F)(F)F)c1)c1cc(Cl)ccc1O + NCC(=O)Nc1ccc(-n2nc(C(F)(F)F)cc2-c2ccc3c(ccc4ccccc43)c2)cc1 [OSU03012] (first compound 0.016 µM, partner dose 1 µM)",230
6,"CCCCCCCCCCCCCCCCCCOP(=O)([O-])OC1CC[N+](C)(C)CC1 [Perifosine] + O=C(O)c1ccc(-c2c[nH]c3ncc(-c4ccccc4)cc23)cc1C1CCCC1 [GSK650394] (first compound 0.4 µM, partner dose 0.16 µM)",174
7,"O=C(Nc1cc(C(F)(F)F)cc(C(F)(F)F)c1)c1cc(Cl)ccc1O + C[C@@H]1CCN(C(=O)CC#N)C[C@@H]1N(C)c1ncnc2[nH]ccc12 [CP690550] (first compound 0.016 µM, partner dose 1 µM)",54.4
8,"CC[C@]1(O)C[C@H]2CN(CCc3c([nH]c4ccccc34)[C@@](C(=O)OC)(c3cc4c(cc3OC)N(C=O)[C@H]3[C@@](O)(C(=O)OC)[C@H](OC(C)=O)[C@]5(CC)C=CCN6CC[C@]43[C@@H]65)C2)C1 [vincristine] + CO[C@@H]1[C@H](N(C)C(=O)c2ccccc2)C[C@H]2O[C@]1(C)n1c3ccccc3c3c4c(c5c6ccccc6n2c5c31)C(=O)NC4 [Midostaurin] (first compound 0.0001 µM, partner dose 0.08 µM)",75.3
9,"COc1cc([C@@H]2c3cc4c(cc3[C@@H](O[C@@H]3O[C@@H]5CO[C@@H](C)O[C@H]5[C@H](O)[C@H]3O)[C@H]3COC(=O)[C@H]23)OCO4)cc(OC)c1O [etoposide] + OCCn1cc(-c2cnc3nnn(Cc4ccc5ncccc5c4)c3n2)cn1 [PF04217903] (first compound 0.02 µM, partner dose 1 µM)",153
10,"CCCCCCCCCCCCCCCCCCOP(=O)([O-])OC1CC[N+](C)(C)CC1 [Perifosine] + C[C@@H]1CCN(C(=O)CC#N)C[C@@H]1N(C)c1ncnc2[nH]ccc12 [CP690550] (first compound 0.4 µM, partner dose 1 µM)",342
11,"O=C(/C=C/c1cccnc1)NCCCCC1CCN(C(=O)c2ccccc2)CC1 + Cc1ccc(NC(=O)c2cccc(N(C)C)c2)cc1NC(=O)c1ccc(O)cc1 [ZM336372] (first compound 0.01 µM, partner dose 2 µM)",6800
12,"Cc1ccc(Nc2nccc(N(C)c3ccc4c(C)n(C)nc4c3)n2)cc1S(N)(=O)=O [Pazopanib] + COc1cc(Nc2ncc(F)c(Nc3ccc4c(n3)NC(=O)C(C)(C)O4)n2)cc(OC)c1OC [Tamatinib] (first compound 0.4 µM, partner dose 0.4 µM)",278
13,"N#CC[C@H](C1CCCC1)n1cc(-c2ncnc3[nH]ccc23)cn1 [ruxolitinib] + COc1cc(Nc2ncc(F)c(Nc3ccc4c(n3)NC(=O)C(C)(C)O4)n2)cc(OC)c1OC [Tamatinib] (first compound 1 µM, partner dose 0.4 µM)",244
14,"COc1cc([C@@H]2c3cc4c(cc3[C@@H](O[C@@H]3O[C@@H]5CO[C@@H](C)O[C@H]5[C@H](O)[C@H]3O)[C@H]3COC(=O)[C@H]23)OCO4)cc(OC)c1O [etoposide] + CN(NC(=O)CC(=O)NN(C)C(=S)c1ccccc1)C(=S)c1ccccc1 [STA4783] (first compound 0.02 µM, partner dose 0.006 µM)",2240
15,"O=C(Nc1cc(C(F)(F)F)cc(C(F)(F)F)c1)c1cc(Cl)ccc1O + O=C(Nc1cccc(Cl)c1)Nc1ncc(CCNc2ncnc3ccsc23)s1 [SNS314] (first compound 0.016 µM, partner dose 0.0008 µM)",122
16,"Cc1cn(-c2cc(NC(=O)c3ccc(C)c(Nc4nccc(-c5cccnc5)n4)c3)cc(C(F)(F)F)c2)cn1 [nilotinib] + NC(=O)Nc1cc(-c2cccc(F)c2)sc1C(=O)N[C@H]1CCCNC1 [AZD7762] (first compound 0.2 µM, partner dose 0.02 µM)",87.4
17,"Cc1cn(-c2cc(NC(=O)c3ccc(C)c(Nc4nccc(-c5cccnc5)n4)c3)cc(C(F)(F)F)c2)cn1 [nilotinib] + O=C(O)c1ccc(-c2c[nH]c3ncc(-c4ccccc4)cc23)cc1C1CCCC1 [GSK650394] (first compound 0.2 µM, partner dose 0.16 µM)",355
18,"O=C(/C=C/c1cccnc1)NCCCCC1CCN(C(=O)c2ccccc2)CC1 + CC(C)(C)c1cnc(CSc2cnc(NC(=O)C3CCNCC3)s2)o1 [SNS-032] (first compound 0.01 µM, partner dose 0.01 µM)",5440
19,"Cc1cn(-c2cc(NC(=O)c3ccc(C)c(Nc4nccc(-c5cccnc5)n4)c3)cc(C(F)(F)F)c2)cn1 [nilotinib] + O=C(CCCCCCC(=O)Nc1ccccc1)NO [vorinostat] (first compound 0.2 µM, partner dose 0.08 µM)",68.7
20,"N#CC[C@H](C1CCCC1)n1cc(-c2ncnc3[nH]ccc23)cn1 [ruxolitinib] + O=C(O)c1ccc(-c2c[nH]c3ncc(-c4ccccc4)cc23)cc1C1CCCC1 [GSK650394] (first compound 1 µM, partner dose 0.16 µM)",214
21,"O=C(Nc1cc(C(F)(F)F)cc(C(F)(F)F)c1)c1cc(Cl)ccc1O + CO[C@@H]1[C@H](N(C)C(=O)c2ccccc2)C[C@H]2O[C@]1(C)n1c3ccccc3c3c4c(c5c6ccccc6n2c5c31)C(=O)NC4 [Midostaurin] (first compound 0.016 µM, partner dose 0.08 µM)",205
22,"N#CC[C@H](C1CCCC1)n1cc(-c2ncnc3[nH]ccc23)cn1 [ruxolitinib] + Cc1ccc(NC(=O)c2cccc(N(C)C)c2)cc1NC(=O)c1ccc(O)cc1 [ZM336372] (first compound 1 µM, partner dose 2 µM)",168
23,"N#CC[C@H](C1CCCC1)n1cc(-c2ncnc3[nH]ccc23)cn1 [ruxolitinib] + CC1(C)NC(=O)N(c2ccc([N+](=O)[O-])c(C(F)(F)F)c2)C1=O [nilutamide] (first compound 1 µM, partner dose 1 µM)",286
24,"CC[C@]1(O)C[C@H]2CN(CCc3c([nH]c4ccccc34)[C@@](C(=O)OC)(c3cc4c(cc3OC)N(C=O)[C@H]3[C@@](O)(C(=O)OC)[C@H](OC(C)=O)[C@]5(CC)C=CCN6CC[C@]43[C@@H]65)C2)C1 [vincristine] + O=C(Nc1cccc(Cl)c1)Nc1ncc(CCNc2ncnc3ccsc23)s1 [SNS314] (first compound 0.0001 µM, partner dose 0.0008 µM)",86
25,"Cc1cn(-c2cc(NC(=O)c3ccc(C)c(Nc4nccc(-c5cccnc5)n4)c3)cc(C(F)(F)F)c2)cn1 [nilotinib] + CC(C)(C)c1cnc(CSc2cnc(NC(=O)C3CCNCC3)s2)o1 [SNS-032] (first compound 0.2 µM, partner dose 0.01 µM)",160
26,"COc1cc([C@@H]2c3cc4c(cc3[C@@H](O[C@@H]3O[C@@H]5CO[C@@H](C)O[C@H]5[C@H](O)[C@H]3O)[C@H]3COC(=O)[C@H]23)OCO4)cc(OC)c1O [etoposide] + NC(=O)Nc1cc(-c2cccc(F)c2)sc1C(=O)N[C@H]1CCCNC1 [AZD7762] (first compound 0.02 µM, partner dose 0.02 µM)",191
27,"Cc1cc(Nc2cc(N3CCN(C)CC3)nc(Sc3ccc(NC(=O)C4CC4)cc3)n2)n[nH]1 [Tozasertib] + Cn1cncc1[C@@](N)(c1ccc(Cl)cc1)c1ccc2c(c1)c(-c1cccc(Cl)c1)cc(=O)n2C [tipifarnib] (first compound 0.006 µM, partner dose 0.01 µM)",87.4
28,"Cc1ccc(Nc2nccc(N(C)c3ccc4c(C)n(C)nc4c3)n2)cc1S(N)(=O)=O [Pazopanib] + Cn1cncc1[C@@](N)(c1ccc(Cl)cc1)c1ccc2c(c1)c(-c1cccc(Cl)c1)cc(=O)n2C [tipifarnib] (first compound 0.4 µM, partner dose 0.01 µM)",103

# Fetched one by one from above (two):
row,Structure (SMILES),cleaved PARP positive nuclei fraction [%]
17,"Cc1cn(-c2cc(NC(=O)c3ccc(C)c(Nc4nccc(-c5cccnc5)n4)c3)cc(C(F)(F)F)c2)cn1 [nilotinib] + O=C(O)c1ccc(-c2c[nH]c3ncc(-c4ccccc4)cc23)cc1C1CCCC1 [GSK650394] (first compound 0.2 µM, partner dose 0.16 µM)",355
6,"CCCCCCCCCCCCCCCCCCOP(=O)([O-])OC1CC[N+](C)(C)CC1 [Perifosine] + O=C(O)c1ccc(-c2c[nH]c3ncc(-c4ccccc4)cc23)cc1C1CCCC1 [GSK650394] (first compound 0.4 µM, partner dose 0.16 µM)",174
